{"source": "patent US20060122174A1", "about": "“Antiviral treatment” (Henderson Morley Research & Development Limited, priority 2001, published 2006)", "origin": "cited, not measured here", "test_system": "plasma proteins, mainly albumin", "conditions": "cited from earlier work"}
{"compound": "NS(=O)(=O)c1cc(C(=O)O)c(NCc2ccco2)cc1Cl", "note": "[frusemide, 4-chloro-N-furfuryl-5-sulfamoylanthranilic acid]", "values": [{"measurement": "unbound fraction", "setting": "at therapeutic concentrations", "value": "2.3-4.1%"}, {"measurement": "bound to plasma proteins", "setting": "plasma concentrations ranging from 1 to 400 mcg/ml, healthy individuals", "value": "91-99%"}]}
